Assay results reported in paper PMC8637766 (RSC Chemical Biology, 2021).

Test: general procedure: Fmoc solid-phase peptide synthesis; Rink Amide MBHA resin (100-200 mesh, 0.78 mmol/g); Tentagel S RAM resin; DIC/Oxyma
Settings: whole synthesis; for isolated yield: scale of the general procedure 0.25 scale of the general procedure (150 mg of resin)

Substance	isolated mass [mg]	isolated yield [%]	isolated yield (run 1) [%]	isolated mass (run 1) [mg]
(*)KKLLKLLKLLL	21.9	11.0		
PEPTIDE1{K.K.L.L.K.L.L.K.L.L.L.[am]}$$$$V2.0			58.0	84.0
PEPTIDE1{[Btol].K.K.L.C.K.L.C.K.L.[am]}$PEPTIDE1,PEPTIDE1,1:R3-5:R3|PEPTIDE1,PEPTIDE1,1:R4-8:R3$$$V2.0	41.2	31.3		
PEPTIDE1{[Btol].K.K.L.C.K.L.L.K.C.L.[am]}$PEPTIDE1,PEPTIDE1,1:R3-5:R3|PEPTIDE1,PEPTIDE1,1:R4-10:R3$$$V2.0	33.5	23.3		
PEPTIDE1{[Btol].K.K.L.C.K.L.L.K.C.[am]}$PEPTIDE1,PEPTIDE1,1:R3-5:R3|PEPTIDE1,PEPTIDE1,1:R4-10:R3$$$V2.0	41.5	26.5		
PEPTIDE1{[Btol].K.K.L.L.K.C.K.L.C.L.[am]}$PEPTIDE1,PEPTIDE1,1:R3-7:R3|PEPTIDE1,PEPTIDE1,1:R4-10:R3$$$V2.0	23.5	16.3		
PEPTIDE1{[Btol].K.K.L.L.K.C.L.K.C.L.L.[am]}$PEPTIDE1,PEPTIDE1,1:R3-7:R3|PEPTIDE1,PEPTIDE1,1:R4-10:R3$$$V2.0	41.5	26.5		
PEPTIDE1{[Btol].K.K.L.L.K.C.L.K.C.L.[am]}$PEPTIDE1,PEPTIDE1,1:R3-7:R3|PEPTIDE1,PEPTIDE1,1:R4-10:R3$$$V2.0	21.6	15.0		
PEPTIDE1{[Btol].K.K.L.L.K.[dC].L.K.[dC].L.L.[am]}$PEPTIDE1,PEPTIDE1,1:R3-7:R3|PEPTIDE1,PEPTIDE1,1:R4-10:R3$$$V2.0	55.7	35.7		
PEPTIDE1{[Btol].K.K.L.L.L.C.K.L.C.K.[am]}$PEPTIDE1,PEPTIDE1,1:R3-7:R3|PEPTIDE1,PEPTIDE1,1:R4-10:R3$$$V2.0	33.5	23.3		
PEPTIDE1{[Btol].K.L.L.K.K.C.L.K.C.L.[am]}$PEPTIDE1,PEPTIDE1,1:R3-7:R3|PEPTIDE1,PEPTIDE1,1:R4-10:R3$$$V2.0	37.4	26.0		
PEPTIDE1{[Btol].K.L.L.K.L.C.K.K.C.L.[am]}$PEPTIDE1,PEPTIDE1,1:R3-7:R3|PEPTIDE1,PEPTIDE1,1:R4-10:R3$$$V2.0	31.2	21.7		
PEPTIDE1{[Btol].[dK].K.[dL].L.[dK].C.[dL].K.[dC].L.[dL].[am]}$PEPTIDE1,PEPTIDE1,1:R3-7:R3|PEPTIDE1,PEPTIDE1,1:R4-10:R3$$$V2.0	51.2	32.8		
PEPTIDE1{[Btol].[dK].[dK].L.L.[dK].C.L.[dK].C.L.L.[am]}$PEPTIDE1,PEPTIDE1,1:R3-7:R3|PEPTIDE1,PEPTIDE1,1:R4-10:R3$$$V2.0	45.7	29.3		
PEPTIDE1{[Tol].K.K.L.L.K.[Cm].L.K.[Cm].L.L.[am]}$$$$V2.0	84.0	58.0		
PEPTIDE1{[Tol].[dK].[dK].L.L.[dK].[Cm].L.[dK].[Cm].L.L.[am]}$$$$V2.0	102.6	70.9		
PEPTIDE1{[dK].[dK].L.L.[dK].L.L.[dK].L.L.L.[am]}$$$$V2.0			70.9	102.6

Strings that start with PEPTIDE1 are HELM notation: dots part the residues, brackets hold end groups and non-standard residues.
